From patent US11541050B2, “Pyrimidine derivatives for the treatment of viral infections” (JANSSEN SCIENCES IRELAND UC, priority 2011, dated 2023)
At least one structure is not confirmed: it was looked up by name or label, or the drawing left a doubt.

What was measured:
[1] = biological target: T1, human TLR7 (wild type sequence) (Homo sapiens, UniProt Q9NYK1); test: TLR7 cellular NFκB-luc reporter assay, wild type TLR7; assay type: cell-based; set-up: unit not given here; conditions: lowest effective concentration, wild type TLR7 (compounds 74 onward)
T1 construct: expressed in transfected cells; host or cells: HEK293
T1 sequence (Q9NYK1 27-1049): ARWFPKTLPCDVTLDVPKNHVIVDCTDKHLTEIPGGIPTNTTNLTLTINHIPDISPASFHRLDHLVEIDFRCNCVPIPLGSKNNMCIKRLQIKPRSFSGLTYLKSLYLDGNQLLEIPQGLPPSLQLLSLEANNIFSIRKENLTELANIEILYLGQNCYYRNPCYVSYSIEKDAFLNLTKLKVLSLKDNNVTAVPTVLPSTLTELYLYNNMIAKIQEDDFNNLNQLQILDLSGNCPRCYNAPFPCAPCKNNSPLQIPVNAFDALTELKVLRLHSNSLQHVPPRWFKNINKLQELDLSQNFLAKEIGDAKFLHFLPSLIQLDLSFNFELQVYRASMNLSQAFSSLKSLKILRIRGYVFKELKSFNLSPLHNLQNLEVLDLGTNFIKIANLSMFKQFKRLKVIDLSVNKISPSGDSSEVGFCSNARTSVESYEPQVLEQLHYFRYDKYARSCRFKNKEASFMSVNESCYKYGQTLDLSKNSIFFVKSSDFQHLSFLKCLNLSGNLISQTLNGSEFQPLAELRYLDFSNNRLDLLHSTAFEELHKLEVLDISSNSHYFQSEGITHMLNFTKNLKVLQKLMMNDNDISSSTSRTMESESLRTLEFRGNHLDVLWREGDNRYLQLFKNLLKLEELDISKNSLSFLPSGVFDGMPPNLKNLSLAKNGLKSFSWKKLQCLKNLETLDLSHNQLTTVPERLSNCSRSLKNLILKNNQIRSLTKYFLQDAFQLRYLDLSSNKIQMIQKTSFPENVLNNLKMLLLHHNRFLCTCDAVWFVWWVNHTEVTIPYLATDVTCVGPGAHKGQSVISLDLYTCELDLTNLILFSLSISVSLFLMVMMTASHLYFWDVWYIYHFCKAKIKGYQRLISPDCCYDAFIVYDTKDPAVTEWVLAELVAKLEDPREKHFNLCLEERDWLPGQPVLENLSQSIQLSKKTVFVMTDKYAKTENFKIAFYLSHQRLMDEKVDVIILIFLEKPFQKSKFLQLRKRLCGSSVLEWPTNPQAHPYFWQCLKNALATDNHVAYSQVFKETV
Protocol: (§1) The ability of compounds to activate human TLR7 and/or TLR8 was assessed in a cellular reporter assay using HEK293 cells transiently transfected with a TLR7 or TLR8 expression vector and NFκB-luc reporter construct. In one instance the TLR expression construct expresses the respective wild type sequence or a mutant sequence comprising a deletion in the second leucine-rich repeat of the TLR.
(§2) Briefly, HEK293 cells were grown in culture medium (DMEM supplemented with 10% FCS and 2 mM Glutamine). For transfection of cells in 10 cm dishes, cells were detached with Trypsin-EDTA, transfected with a mix of CMV-TLR7 or TLR8 plasmid (750 ng), NFκB-luc plasmid (375 ng) and a transfection reagent and incubated for 48 hours at 37° C. in a humidified 5% CO2 atmosphere. Transfected cells were then detached with Trypsin-EDTA, washed in PBS and resuspended in medium to a density of 1.67×10^5 cells/mL. […] Following 6 hours incubation at 37° C., 5% CO2, the luciferase activity was determined by adding 15 μl of Steady Lite Plus substrate (Perkin Elmer) to each well and readout performed on a ViewLux ultraHTS microplate imager (Perkin Elmer). […] Lowest effective concentrations (LEC) values, defined as the concentration that induces an effect which is at least two fold above the standard deviation of the assay, were determined for each compound.

[2] = biological target: T2, human TLR8 (wild type sequence) (Homo sapiens, UniProt Q9NR97); test: TLR8 cellular NFκB-luc reporter assay, wild type TLR8; assay type: cell-based; set-up: unit not given here; conditions: lowest effective concentration, wild type TLR8 (compounds 74 onward)
T2 construct: expressed in transfected cells; host or cells: HEK293
T2 sequence (Q9NR97 27-1041): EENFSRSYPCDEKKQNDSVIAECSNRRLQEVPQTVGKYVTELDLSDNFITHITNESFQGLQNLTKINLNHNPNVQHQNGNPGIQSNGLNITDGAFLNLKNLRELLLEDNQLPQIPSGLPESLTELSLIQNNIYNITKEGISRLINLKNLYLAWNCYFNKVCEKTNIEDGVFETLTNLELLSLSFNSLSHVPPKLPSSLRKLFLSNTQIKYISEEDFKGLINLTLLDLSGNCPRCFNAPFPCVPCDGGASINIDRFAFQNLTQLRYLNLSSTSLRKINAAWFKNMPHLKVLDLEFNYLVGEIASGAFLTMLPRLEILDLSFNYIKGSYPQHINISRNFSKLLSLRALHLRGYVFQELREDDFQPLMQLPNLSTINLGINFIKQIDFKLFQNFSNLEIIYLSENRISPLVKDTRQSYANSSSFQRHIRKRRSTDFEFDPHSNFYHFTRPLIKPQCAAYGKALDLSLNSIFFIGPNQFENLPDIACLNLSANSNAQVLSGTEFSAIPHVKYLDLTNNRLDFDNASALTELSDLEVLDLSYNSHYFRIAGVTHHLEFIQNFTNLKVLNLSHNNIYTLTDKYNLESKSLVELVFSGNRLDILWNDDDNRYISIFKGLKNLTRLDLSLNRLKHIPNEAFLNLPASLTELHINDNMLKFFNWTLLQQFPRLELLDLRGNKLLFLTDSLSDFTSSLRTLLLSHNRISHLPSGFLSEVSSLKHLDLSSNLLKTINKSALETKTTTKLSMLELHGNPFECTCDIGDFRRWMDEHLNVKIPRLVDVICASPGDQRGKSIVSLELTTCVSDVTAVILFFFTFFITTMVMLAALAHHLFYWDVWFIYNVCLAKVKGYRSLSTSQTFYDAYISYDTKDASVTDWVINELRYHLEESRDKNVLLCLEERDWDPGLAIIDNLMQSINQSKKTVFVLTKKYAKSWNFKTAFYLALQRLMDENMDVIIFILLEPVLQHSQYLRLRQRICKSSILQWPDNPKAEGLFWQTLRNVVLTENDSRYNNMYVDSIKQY
Protocol: as §1, §2

CCC[C@@H](CCO)Nc1nc(N)ncc1OCc1[nH]ccc(=O)c1OC [Compound 88]
TLR 7 wt LEC [1]: 3.090 | TLR 8 wt LEC [2]: 6.960
